Measurements published in paper PMC7819943, “Rice protein-binding microarrays: a tool to detect cis-acting elements near promoter regions in rice”.
This is one part of the list.

biological target: T1, OsSMF1 (Oryza sativa, UniProt Q6ZLB0 1-436); assay: protein-binding microarray (RPBM); PBS, 2% BSA, 51.3 ng/ul salmon testes DNA, 50 uM zinc acetate, 200 nM TF, 25 C, 1 h; high values mean tight binding; settings: protein: recombinant; tags: N-terminal polyhistidine and DsRed monomer fusion (pET32a); chain copies: 2; label: CyDye5-dUTP incorporated in the synthesized complementary strand; 3' TTTTT single-stranded linker to array surface; dsDNA, one strand shown
T1 sequence: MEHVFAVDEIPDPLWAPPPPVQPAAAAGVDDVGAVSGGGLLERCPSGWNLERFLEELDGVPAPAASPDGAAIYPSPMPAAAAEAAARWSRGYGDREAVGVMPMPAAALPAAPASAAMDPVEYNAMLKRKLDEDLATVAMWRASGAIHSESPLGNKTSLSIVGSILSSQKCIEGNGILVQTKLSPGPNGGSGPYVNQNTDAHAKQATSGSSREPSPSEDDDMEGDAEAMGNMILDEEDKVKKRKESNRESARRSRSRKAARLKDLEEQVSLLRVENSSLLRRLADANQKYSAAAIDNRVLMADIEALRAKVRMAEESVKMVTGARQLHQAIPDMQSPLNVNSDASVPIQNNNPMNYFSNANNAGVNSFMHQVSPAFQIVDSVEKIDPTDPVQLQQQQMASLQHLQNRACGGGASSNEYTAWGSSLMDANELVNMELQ
In short: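 Ni–NTA purification followed expression in E. coli BL21-CodonPlus of transcription factors fused N-terminally to a polyhistidine tag and DsRed. At 200 nM in PBS with 2% BSA, salmon testes DNA and 50 µM zinc acetate, the protein was incubated for 1 h at 25 °C with a custom Agilent array that had been primer-extended with Cy5-dUTP and blocked with 2% BSA. After washing, the array was read on an Axon 4000B scanner. The binding signal is per-feature fluorescence intensity in arbitrary units.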

**Q.** For “GTCGGGAGGAGGTGAGAGAGGAGGAGATAAGGCTGTGGGGCGGAGTCACCTAGTGCAG”, which binding signal is on record?
**A.** 4090 fluorescence intensity (a.u.)

**Q.** With “CGTCTCAATAATCCGGACTCACTCACATATGCTGCCTTCGCGGAGTCACCTAGTGCAG” as the sequence, how does the binding signal read?
**A.** 3910 fluorescence intensity (a.u.)

**Q.** Which binding signal does the source give for “ATATATTTAAGTACCAAGTGTCAAAATATGTGTGGTTTTCCGGAGTCACCTAGTGCAG” here?
**A.** 3620 fluorescence intensity (a.u.)

**Q.** For “AGCCACCCCGCCGCCGGCGATCCCCGGCATCCTCGCCACCCGGAGTCACCTAGTGCAG”, which binding signal is on record?
**A.** 3780 fluorescence intensity (a.u.)

**Q.** “TGGGTCCCATGCTGACTCGGCCGCCACGTCGGACAAAACCCGGAGTCACCTAGTGCAG” was tested. Which binding signal did it give?
**A.** 27300 fluorescence intensity (a.u.)

**Q.** Which binding signal does the source give for “CTCTAATCCATTGATCAATCATCGACACCTCACGTTACAACGGAGTCACCTAGTGCAG” here?
**A.** 3880 fluorescence intensity (a.u.)

**Q.** “GTGCCCACACGTGGCTCGAATCCGAGAGGGACAGCGTCCTCGGAGTCACCTAGTGCAG” was tested. Which binding signal did it give?
**A.** 4110 fluorescence intensity (a.u.)

**Q.** How did the binding signal turn out when “AGACACCCAGTCACAGCTCATAGTATTTGCATCCCCACAGCGGAGTCACCTAGTGCAG” was run?
**A.** 3800 fluorescence intensity (a.u.)

**Q.** For “GGCCCGCCTTCCAGCCTCAAACACCATGACACGTGTACCCCGGAGTCACCTAGTGCAG”, which binding signal is on record?
**A.** 24100 fluorescence intensity (a.u.)

**Q.** For “CCGGCAGATCAATCTCGGTCAGACTGACTTCCGTCGATTTCGGAGTCACCTAGTGCAG”, which binding signal is on record?
**A.** 3200 fluorescence intensity (a.u.)

**Q.** “GTTCTTCTCCAACTCACCCTGTTTCTCTCACCAAATGCCCCGGAGTCACCTAGTGCAG” was tested. Which binding signal did it give?
**A.** 4320 fluorescence intensity (a.u.)

**Q.** For “ATGTAGATTTGATGCTGATGCACACGATTCCGACTAAGAGCGGAGTCACCTAGTGCAG”, which binding signal is on record?
**A.** 3590 fluorescence intensity (a.u.)

**Q.** How did the binding signal turn out when “CAGTCCTCCAAAATTTAATAACACCAAAATTCGAAATATTCGGAGTCACCTAGTGCAG” was run?
**A.** 3430 fluorescence intensity (a.u.)

**Q.** “AGTGAGAGGAGGTAGCTCTGCCACCGGAGCGGCTGCGGGGCGGAGTCACCTAGTGCAG” was tested. Which binding signal did it give?
**A.** 3390 fluorescence intensity (a.u.)

**Q.** How did the binding signal turn out when “CTTTGTCTTAGTATGGTGACTGGTTGCAAATTGATTTGGTCGGAGTCACCTAGTGCAG” was run?
**A.** 3410 fluorescence intensity (a.u.)

**Q.** For “GTTTCCCTTAATCCCCACGTGCGTGCGCGCCCGAGCGGGACGGAGTCACCTAGTGCAG”, which binding signal is on record?
**A.** 3430 fluorescence intensity (a.u.)

**Q.** For “TTTCACTATGGTATATATAATGGTATAATGGTCATTTAATCGGAGTCACCTAGTGCAG”, which binding signal is on record?
**A.** 3340 fluorescence intensity (a.u.)

**Q.** Which binding signal does the source give for “GCCGCGCCGTCCTGTGTGTGCGTGGCGCCAATGCATGCTACGGAGTCACCTAGTGCAG” here?
**A.** 3590 fluorescence intensity (a.u.)

**Q.** For “TCCTCCAGATGTTACAGTCTCCGAATTTCAGTGATGTCACCGGAGTCACCTAGTGCAG”, which binding signal is on record?
**A.** 11800 fluorescence intensity (a.u.)

**Q.** For “CGAACGAAATCGCCGACACGTGGATCTGCACGCTGAAGCTCGGAGTCACCTAGTGCAG”, which binding signal is on record?
**A.** 10700 fluorescence intensity (a.u.)

**Q.** For “TGCCAATGGTGTGTGCAATTGCAACATGCGTTTGGTTGTGCGGAGTCACCTAGTGCAG”, which binding signal is on record?
**A.** 4100 fluorescence intensity (a.u.)

**Q.** For “GTTCCGATGCTAGTCTATGAGTTCGTCCCGAATGGAACATCGGAGTCACCTAGTGCAG”, which binding signal is on record?
**A.** 4300 fluorescence intensity (a.u.)

**Q.** “GCCCCGGCGCGGCGCGCGGAGACGTGTCCCGATCCAACTCCGGAGTCACCTAGTGCAG” was tested. Which binding signal did it give?
**A.** 3200 fluorescence intensity (a.u.)
